# Laboratory results reported in the supplement of paper PMC10849652.
# Amino acid sequences for entries named in this document (tags omitted). A change or cut given only in a name is not applied to a line headed by its entry.
# UniProt Q9Y421: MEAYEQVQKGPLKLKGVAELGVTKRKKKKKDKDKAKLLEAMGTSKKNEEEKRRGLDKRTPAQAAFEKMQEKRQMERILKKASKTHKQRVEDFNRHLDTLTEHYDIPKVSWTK
# UniProt Q5JUQ0: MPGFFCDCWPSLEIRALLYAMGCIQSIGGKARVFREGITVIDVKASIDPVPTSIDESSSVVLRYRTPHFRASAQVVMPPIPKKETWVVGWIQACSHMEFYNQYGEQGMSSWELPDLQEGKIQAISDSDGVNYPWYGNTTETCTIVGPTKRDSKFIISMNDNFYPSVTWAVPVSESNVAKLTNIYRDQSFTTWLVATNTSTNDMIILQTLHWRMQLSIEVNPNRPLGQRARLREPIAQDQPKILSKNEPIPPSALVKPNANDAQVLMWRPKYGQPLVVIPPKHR
# UniProt O95302: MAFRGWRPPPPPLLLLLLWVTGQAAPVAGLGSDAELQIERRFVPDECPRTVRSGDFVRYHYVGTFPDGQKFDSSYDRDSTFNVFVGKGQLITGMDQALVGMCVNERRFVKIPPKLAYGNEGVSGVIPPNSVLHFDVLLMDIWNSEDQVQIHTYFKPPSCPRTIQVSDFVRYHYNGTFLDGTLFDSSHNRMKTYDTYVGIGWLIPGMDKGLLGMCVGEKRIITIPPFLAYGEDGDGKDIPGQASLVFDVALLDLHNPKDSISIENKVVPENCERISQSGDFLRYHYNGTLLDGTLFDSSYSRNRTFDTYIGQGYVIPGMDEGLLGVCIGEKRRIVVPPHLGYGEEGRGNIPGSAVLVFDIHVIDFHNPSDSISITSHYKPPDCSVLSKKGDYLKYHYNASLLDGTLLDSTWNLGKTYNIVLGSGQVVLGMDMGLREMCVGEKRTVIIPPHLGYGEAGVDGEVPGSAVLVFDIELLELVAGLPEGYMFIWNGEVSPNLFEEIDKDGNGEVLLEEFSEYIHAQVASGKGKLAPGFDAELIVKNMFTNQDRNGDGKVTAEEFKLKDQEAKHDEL
# UniProt Q8WVX9: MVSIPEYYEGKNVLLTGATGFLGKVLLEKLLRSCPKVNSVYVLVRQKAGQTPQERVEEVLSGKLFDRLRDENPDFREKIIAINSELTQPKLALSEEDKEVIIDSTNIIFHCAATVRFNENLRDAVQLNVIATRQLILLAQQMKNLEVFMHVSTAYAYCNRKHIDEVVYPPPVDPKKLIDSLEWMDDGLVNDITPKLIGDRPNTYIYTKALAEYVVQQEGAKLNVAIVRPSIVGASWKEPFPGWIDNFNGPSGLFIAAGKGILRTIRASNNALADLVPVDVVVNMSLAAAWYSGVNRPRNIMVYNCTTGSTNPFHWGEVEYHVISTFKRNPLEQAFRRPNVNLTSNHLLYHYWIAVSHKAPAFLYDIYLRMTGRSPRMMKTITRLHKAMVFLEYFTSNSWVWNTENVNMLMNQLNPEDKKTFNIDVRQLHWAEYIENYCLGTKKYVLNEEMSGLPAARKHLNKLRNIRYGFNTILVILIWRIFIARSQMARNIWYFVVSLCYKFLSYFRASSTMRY
# UniProt Q8NEZ5: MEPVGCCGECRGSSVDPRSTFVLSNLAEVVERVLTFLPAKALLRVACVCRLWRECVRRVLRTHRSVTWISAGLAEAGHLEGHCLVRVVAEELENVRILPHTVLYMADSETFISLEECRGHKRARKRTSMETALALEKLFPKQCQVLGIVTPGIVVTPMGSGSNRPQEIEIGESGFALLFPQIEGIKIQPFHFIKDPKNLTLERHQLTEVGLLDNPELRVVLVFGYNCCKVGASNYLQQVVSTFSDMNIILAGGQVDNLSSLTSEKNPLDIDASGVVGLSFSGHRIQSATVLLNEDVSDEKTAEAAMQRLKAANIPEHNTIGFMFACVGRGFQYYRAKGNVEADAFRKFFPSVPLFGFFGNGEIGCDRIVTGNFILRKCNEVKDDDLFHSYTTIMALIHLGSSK
# UniProt Q8N3X1: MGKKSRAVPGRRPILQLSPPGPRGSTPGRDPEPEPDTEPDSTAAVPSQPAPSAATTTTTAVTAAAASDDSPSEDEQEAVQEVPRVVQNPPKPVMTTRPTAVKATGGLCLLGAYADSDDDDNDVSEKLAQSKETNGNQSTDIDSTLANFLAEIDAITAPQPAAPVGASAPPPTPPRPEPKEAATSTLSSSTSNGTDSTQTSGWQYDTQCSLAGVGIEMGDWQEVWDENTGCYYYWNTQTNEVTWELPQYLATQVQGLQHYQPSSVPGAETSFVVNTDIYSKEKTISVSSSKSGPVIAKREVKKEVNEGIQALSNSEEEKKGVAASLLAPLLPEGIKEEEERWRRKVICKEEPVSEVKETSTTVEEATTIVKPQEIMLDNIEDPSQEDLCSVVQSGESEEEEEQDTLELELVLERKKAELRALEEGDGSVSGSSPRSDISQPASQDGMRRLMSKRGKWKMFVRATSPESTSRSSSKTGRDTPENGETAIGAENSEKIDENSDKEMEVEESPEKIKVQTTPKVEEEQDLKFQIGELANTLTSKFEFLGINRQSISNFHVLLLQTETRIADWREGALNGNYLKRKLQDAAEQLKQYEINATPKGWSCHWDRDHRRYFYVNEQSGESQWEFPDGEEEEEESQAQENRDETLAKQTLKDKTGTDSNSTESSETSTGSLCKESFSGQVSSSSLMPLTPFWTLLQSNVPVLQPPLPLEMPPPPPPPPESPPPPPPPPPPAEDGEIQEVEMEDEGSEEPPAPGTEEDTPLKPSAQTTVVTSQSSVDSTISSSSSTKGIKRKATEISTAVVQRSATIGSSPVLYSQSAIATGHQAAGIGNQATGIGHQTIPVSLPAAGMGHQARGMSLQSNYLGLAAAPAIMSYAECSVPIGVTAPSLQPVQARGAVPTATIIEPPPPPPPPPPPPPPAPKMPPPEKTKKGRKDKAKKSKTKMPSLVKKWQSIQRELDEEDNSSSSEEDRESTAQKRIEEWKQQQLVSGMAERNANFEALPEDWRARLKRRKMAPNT
# UniProt Q5HYJ3: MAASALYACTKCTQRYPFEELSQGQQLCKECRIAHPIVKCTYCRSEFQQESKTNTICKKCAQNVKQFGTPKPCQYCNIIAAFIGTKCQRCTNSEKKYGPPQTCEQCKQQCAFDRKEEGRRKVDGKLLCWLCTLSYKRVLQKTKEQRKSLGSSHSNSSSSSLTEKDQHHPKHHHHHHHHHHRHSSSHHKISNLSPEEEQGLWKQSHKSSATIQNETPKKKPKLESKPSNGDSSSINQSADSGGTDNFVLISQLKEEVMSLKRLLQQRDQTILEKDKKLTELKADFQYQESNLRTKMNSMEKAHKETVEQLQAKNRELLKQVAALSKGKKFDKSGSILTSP
# UniProt Q9Y5Y0: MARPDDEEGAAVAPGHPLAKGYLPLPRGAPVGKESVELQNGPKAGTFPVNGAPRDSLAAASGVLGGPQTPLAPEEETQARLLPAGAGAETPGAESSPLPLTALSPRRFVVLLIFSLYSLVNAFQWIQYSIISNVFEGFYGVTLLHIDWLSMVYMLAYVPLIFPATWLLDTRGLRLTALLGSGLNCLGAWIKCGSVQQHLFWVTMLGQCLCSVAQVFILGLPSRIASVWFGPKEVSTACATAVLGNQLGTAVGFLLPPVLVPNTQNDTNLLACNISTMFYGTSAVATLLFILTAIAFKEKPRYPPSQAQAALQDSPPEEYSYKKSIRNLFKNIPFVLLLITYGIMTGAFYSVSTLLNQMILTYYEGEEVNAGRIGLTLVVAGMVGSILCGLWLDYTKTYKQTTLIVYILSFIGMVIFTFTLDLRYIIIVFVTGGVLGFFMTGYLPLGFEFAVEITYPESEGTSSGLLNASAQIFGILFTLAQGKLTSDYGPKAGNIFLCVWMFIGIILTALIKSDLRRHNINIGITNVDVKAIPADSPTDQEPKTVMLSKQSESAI
# UniProt Q9H479: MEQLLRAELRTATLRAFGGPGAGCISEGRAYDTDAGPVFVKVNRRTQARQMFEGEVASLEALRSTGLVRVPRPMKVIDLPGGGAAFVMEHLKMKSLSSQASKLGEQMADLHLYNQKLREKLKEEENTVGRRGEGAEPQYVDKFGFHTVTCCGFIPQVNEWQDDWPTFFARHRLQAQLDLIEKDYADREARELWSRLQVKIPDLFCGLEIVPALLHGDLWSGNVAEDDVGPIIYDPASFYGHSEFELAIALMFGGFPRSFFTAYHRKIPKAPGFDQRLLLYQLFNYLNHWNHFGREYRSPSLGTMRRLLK
# UniProt Q9UK73, whole entry, looked up: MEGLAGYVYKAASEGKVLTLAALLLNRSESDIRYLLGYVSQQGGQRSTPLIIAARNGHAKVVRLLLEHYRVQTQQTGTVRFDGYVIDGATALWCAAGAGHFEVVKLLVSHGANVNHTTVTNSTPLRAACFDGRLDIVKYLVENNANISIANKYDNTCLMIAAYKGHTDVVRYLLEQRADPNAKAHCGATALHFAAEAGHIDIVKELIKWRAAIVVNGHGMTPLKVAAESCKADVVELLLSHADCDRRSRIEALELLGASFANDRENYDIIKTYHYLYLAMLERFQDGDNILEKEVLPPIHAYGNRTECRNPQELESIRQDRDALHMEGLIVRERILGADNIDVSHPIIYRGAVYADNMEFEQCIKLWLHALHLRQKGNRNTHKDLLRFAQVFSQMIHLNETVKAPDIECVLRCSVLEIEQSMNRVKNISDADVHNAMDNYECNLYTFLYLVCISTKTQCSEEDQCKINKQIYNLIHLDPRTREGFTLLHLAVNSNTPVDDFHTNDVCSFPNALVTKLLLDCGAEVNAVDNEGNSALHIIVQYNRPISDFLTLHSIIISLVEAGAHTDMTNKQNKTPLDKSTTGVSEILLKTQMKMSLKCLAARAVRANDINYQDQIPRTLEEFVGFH
# UniProt Q6UN15: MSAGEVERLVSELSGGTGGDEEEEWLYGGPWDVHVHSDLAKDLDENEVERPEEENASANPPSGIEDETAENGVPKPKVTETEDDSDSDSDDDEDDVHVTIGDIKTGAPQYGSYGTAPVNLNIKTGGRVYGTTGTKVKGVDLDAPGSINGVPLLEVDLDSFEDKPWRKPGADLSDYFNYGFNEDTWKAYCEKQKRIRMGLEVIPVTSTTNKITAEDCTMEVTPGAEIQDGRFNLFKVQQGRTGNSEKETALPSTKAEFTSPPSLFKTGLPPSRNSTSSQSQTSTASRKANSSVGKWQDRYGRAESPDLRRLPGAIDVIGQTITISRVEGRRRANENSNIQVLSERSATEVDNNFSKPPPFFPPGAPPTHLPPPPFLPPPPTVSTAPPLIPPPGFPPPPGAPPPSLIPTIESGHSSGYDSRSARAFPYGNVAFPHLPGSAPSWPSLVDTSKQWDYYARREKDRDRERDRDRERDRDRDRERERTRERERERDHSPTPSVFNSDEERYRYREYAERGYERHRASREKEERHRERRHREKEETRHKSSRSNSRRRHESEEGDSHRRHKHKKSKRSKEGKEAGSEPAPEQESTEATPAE
# UniProt P10109: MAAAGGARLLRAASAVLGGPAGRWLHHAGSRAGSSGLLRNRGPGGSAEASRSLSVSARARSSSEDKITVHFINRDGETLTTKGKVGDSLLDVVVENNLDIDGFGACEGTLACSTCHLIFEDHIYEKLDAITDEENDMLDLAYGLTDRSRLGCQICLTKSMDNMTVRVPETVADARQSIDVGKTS
# UniProt Q52LJ0: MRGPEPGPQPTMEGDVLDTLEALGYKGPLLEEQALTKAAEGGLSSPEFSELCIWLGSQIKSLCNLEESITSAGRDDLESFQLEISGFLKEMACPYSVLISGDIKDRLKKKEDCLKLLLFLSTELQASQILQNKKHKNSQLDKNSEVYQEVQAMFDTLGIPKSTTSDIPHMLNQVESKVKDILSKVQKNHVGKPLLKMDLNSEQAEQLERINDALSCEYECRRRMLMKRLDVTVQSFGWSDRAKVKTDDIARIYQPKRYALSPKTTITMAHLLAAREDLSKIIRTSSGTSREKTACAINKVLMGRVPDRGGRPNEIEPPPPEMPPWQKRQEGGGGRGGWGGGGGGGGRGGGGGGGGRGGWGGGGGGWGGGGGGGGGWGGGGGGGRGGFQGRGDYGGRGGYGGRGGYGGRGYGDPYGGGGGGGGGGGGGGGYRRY
# UniProt Q8NFF5: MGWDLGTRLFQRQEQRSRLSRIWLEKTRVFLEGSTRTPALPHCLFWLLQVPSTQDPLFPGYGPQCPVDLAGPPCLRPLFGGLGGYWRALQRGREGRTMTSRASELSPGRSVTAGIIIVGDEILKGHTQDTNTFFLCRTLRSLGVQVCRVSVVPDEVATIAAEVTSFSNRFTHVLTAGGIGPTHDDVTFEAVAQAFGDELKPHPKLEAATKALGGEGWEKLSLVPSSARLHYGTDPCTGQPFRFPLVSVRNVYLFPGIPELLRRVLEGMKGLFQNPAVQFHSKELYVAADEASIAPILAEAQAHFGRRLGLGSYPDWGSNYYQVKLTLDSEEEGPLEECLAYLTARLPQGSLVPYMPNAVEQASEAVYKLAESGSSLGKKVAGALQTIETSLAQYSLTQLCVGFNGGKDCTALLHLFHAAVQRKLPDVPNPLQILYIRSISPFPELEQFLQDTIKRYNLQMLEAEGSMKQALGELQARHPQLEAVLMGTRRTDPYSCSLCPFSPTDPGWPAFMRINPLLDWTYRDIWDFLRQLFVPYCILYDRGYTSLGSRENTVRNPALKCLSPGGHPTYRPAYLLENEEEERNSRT
# The list shows a part of the results.
# Compound: Cn1cncc1[C@@](N)(c1ccc(Cl)cc1)c1ccc2c(c1)c(-c1cccc(Cl)c1)cc(=O)n2C [tipifarnib]
# Assay: log2 fold change, soluble protein after heating vs DMSO (PISA); higher = thermal stabilisation; K562 cells, 10 uM, 30 min; active = over 0.2 and 3.5 SD of the protein, either way, in both replicates (recomputed)
# Procedure, shortened: (§1)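 K562 cells at 2×10^6 cells/mL were given 10 μM compound for 30 min. Aliquots then went through 3 min of heating across 48°C-58°C, were pooled, and were extracted in PBS with 0.5% NP-40 at 4°C, and the supernatant after 21,000xg for 90 min was quantified by TMTpro 16plex LC-MS/MS with channel sums equalised. Thermal stability relative to control samples, from duplicates, is given as log2 fold change.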
row,Target,log2 fold change
1,FLNC (UniProt Q14315),inactive: -0.053
2,FCGR2C (UniProt P31995),inactive: -0.023
3,FKBP5 (UniProt Q13451),inactive: -0.164
4,FKBP2 (UniProt P26885),inactive: 0.024
5,FHL2 (UniProt Q14192),inactive: 0.02
6,FAM210A (UniProt Q96ND0),inactive: 0.024
7,FAM32A (UniProt Q9Y421),inactive: 0.056
8,FARSB (UniProt Q9NSD9),inactive: -0.022
9,FAM78A (UniProt Q5JUQ0),inactive: -0.069
10,FKBP9 (UniProt O95302),inactive: 0.037
11,FAR1 (UniProt Q8WVX9),inactive: 0.16
12,FBXO30 (UniProt Q8TB52),inactive: -0.014
13,FKBP15 (UniProt Q5T1M5),inactive: -0.033
14,FBLN1 (UniProt P23142),inactive: 0.21

# Compound: FC(F)(F)c1ccc(/C=C/c2nc(COc3ccc(CCCCn4ccnn4)cc3)co2)cc1 [mubritinib]
# Assay: as above
# Procedure, shortened: as §1
row,Target,log2 fold change
1,FBXO22 (UniProt Q8NEZ5),inactive: 0.132
2,FNBP4 isoform 2 (UniProt Q8N3X1),inactive: -0.007
3,FGFR1OP (UniProt O95684),inactive: -0.009
4,FCSK isoform 2 (UniProt Q8N0W3),inactive: 0.059
5,FAM76B (UniProt Q5HYJ3),inactive: -0.136
6,FLVCR1 (UniProt Q9Y5Y0),inactive: -0.084
7,FAM98A (UniProt Q8NCA5),inactive: -0.081
8,FERMT2 isoform 3 (UniProt Q96AC1),inactive: 0.094
9,FN3K (UniProt Q9H479),inactive: 0.024
10,FEM1B (UniProt Q9UK73),inactive: 0.101
11,FN1 isoform 1 (UniProt P02751),inactive: -0.083
12,FN3KRP (UniProt Q9HA64),inactive: 0.01
13,FIP1L1 (UniProt Q6UN15),inactive: 0
14,FLYWCH2 (UniProt Q96CP2),inactive: -0.005
15,FDX1 (UniProt P10109),inactive: -0.037
16,FLOT2 (UniProt Q14254),inactive: -0.082
17,FAM98B (UniProt Q52LJ0),inactive: -0.091
18,FLOT1 (UniProt O75955),inactive: -0.105

row,Target,log2 fold change
1,FBXO5 (UniProt Q9UKT4),inactive: -0.006
2,FLT4 (UniProt P35916),inactive: -0.009
3,FLAD1 (UniProt Q8NFF5),inactive: 0.054
4,FLII (UniProt Q13045),inactive: 0.045
5,FLNB isoform 8 (UniProt O75369),inactive: 0.091
6,FLNC (UniProt Q14315),inactive: 0.062
7,FCGR2C (UniProt P31995),inactive: 0.062
8,FKBP5 (UniProt Q13451),inactive: -0.026
9,FKBP2 (UniProt P26885),inactive: -0.014
10,FHL2 (UniProt Q14192),inactive: 0.009
11,FAM210A (UniProt Q96ND0),inactive: 0.038
12,FAM32A (UniProt Q9Y421),inactive: -0.049
13,FARSB (UniProt Q9NSD9),inactive: 0.001
14,FKBP9 (UniProt O95302),inactive: -0.06
15,FAR1 (UniProt Q8WVX9),inactive: 0.014
16,FBXO30 (UniProt Q8TB52),inactive: -0.004
17,FKBP15 (UniProt Q5T1M5),inactive: 0.046
18,FBLN1 (UniProt P23142),inactive: -0.269
